Test [1] has as its target T1, Vps8 with 3xFLAG tag (CORVET subunit) (yeast, UniProt P39702 1-1274).
T1 construct: UniProt P39702 printed for its AlphaFold model
T1 sequence: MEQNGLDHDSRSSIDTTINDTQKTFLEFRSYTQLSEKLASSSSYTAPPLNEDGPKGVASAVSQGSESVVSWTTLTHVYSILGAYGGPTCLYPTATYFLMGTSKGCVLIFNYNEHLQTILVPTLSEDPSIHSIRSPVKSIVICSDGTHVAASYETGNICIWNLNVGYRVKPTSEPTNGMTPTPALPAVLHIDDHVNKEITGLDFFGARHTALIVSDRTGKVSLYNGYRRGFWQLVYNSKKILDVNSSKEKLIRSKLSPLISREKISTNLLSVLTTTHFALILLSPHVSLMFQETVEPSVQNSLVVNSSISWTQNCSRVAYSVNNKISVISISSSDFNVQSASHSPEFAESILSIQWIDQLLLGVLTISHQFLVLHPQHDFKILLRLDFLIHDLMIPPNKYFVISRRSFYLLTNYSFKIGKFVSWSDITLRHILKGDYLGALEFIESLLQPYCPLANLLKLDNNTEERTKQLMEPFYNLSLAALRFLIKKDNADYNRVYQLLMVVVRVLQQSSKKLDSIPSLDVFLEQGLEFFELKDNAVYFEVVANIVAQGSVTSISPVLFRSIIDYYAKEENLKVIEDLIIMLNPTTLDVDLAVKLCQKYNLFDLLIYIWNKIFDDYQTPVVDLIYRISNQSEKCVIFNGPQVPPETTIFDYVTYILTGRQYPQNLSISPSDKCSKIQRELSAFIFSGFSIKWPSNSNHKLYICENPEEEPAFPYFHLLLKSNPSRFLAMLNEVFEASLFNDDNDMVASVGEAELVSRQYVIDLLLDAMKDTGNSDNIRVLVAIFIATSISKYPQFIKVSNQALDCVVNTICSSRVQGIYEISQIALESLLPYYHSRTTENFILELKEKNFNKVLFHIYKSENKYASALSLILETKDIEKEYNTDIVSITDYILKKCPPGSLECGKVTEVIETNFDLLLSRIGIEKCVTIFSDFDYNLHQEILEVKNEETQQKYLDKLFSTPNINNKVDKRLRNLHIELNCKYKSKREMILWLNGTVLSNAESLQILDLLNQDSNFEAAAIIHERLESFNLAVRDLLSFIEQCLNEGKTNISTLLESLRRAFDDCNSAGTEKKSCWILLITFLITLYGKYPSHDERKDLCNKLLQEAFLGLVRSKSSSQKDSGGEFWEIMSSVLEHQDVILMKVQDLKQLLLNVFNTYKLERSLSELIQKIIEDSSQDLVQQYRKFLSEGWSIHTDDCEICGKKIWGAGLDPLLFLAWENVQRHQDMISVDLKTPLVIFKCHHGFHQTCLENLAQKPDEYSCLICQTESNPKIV
The test can be described thus: FLAG affinity purification followed by SEC; mutant CORVET complexes overproduced in yeast, anti-FLAG M2 affinity gel from lysate, FLAG-peptide elution, Superose 6 Increase; 300 mM NaCl, 20 mM HEPES/NaOH pH 7.4, 1.5 mM MgCl2, 10% glycerol.

Protein sequences, listed by entry. Tags and fused reporters are not part of them. Lines headed by an entry give the natural chain unless they say otherwise; changes in a name come on top. Residues count along the entry.
UniProt P12868, residues 336-1029: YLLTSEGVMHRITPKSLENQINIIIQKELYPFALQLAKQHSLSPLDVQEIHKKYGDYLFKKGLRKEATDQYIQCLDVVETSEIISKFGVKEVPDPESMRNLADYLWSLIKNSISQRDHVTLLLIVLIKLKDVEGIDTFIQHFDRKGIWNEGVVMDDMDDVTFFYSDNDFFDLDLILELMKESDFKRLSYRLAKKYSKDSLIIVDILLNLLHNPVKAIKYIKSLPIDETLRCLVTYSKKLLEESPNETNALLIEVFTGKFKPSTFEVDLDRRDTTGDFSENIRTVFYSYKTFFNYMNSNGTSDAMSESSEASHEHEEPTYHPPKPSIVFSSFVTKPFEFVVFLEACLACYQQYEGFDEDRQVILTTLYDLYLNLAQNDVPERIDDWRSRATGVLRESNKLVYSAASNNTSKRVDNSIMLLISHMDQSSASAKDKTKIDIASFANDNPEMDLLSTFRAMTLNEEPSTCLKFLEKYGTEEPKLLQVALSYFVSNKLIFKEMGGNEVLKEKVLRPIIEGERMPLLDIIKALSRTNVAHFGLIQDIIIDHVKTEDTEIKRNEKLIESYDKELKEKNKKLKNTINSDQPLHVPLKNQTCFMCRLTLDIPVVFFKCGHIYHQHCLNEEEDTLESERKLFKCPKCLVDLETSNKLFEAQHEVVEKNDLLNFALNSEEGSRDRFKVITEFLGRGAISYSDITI

Test [2] has as its target T2, Vps33 (CORVET and HOPS subunit, SM protein of the SNARE-binding module) (yeast), P20795.
T2 chain: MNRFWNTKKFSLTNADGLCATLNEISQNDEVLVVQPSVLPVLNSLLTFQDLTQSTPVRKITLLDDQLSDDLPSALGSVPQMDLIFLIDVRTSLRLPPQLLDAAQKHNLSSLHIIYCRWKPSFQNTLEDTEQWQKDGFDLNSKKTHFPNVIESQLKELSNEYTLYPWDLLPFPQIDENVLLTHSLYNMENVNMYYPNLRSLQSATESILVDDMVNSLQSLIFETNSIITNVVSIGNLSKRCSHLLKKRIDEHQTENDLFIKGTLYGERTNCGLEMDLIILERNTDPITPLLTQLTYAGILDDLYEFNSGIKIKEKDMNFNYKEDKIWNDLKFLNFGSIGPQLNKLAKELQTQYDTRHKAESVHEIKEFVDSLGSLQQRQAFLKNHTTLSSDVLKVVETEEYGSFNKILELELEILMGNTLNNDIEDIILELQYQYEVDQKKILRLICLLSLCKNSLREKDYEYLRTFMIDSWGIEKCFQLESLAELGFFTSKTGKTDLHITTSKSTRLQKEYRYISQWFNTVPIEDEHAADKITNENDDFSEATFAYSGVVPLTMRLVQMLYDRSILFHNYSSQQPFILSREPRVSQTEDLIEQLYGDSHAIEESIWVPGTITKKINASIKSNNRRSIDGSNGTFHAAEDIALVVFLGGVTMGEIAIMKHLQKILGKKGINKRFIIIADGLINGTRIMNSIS
Put plainly: cryo-EM structure; single-particle cryo-EM of the hexameric CORVET co-expressed in yeast and purified by 3xFLAG on Vps8 and SEC; about 0.8 mg/ml; consensus map 4.6 Å, local refinements to 3.8 Å; both purified. The conditions noted are these: remark: other sources report otherwise.

Results are given in words; binding and its absence hold for the method and conditions named. Some binding calls cover weakened binding; strength is not graded here. Tags and fused reporters may be left off the sequences shown.

“Vps11ΔN (Vps11 lacking the β-propeller, residues 1-335) (from UniProt P12868 336-1029) (domain or fragment)”: in test [1], the binding entry is “binds”.

B1: Vps8 with 3xFLAG tag (CORVET subunit), P39702 1-1274 (protein)
chain: MEQNGLDHDSRSSIDTTINDTQKTFLEFRSYTQLSEKLASSSSYTAPPLNEDGPKGVASAVSQGSESVVSWTTLTHVYSILGAYGGPTCLYPTATYFLMGTSKGCVLIFNYNEHLQTILVPTLSEDPSIHSIRSPVKSIVICSDGTHVAASYETGNICIWNLNVGYRVKPTSEPTNGMTPTPALPAVLHIDDHVNKEITGLDFFGARHTALIVSDRTGKVSLYNGYRRGFWQLVYNSKKILDVNSSKEKLIRSKLSPLISREKISTNLLSVLTTTHFALILLSPHVSLMFQETVEPSVQNSLVVNSSISWTQNCSRVAYSVNNKISVISISSSDFNVQSASHSPEFAESILSIQWIDQLLLGVLTISHQFLVLHPQHDFKILLRLDFLIHDLMIPPNKYFVISRRSFYLLTNYSFKIGKFVSWSDITLRHILKGDYLGALEFIESLLQPYCPLANLLKLDNNTEERTKQLMEPFYNLSLAALRFLIKKDNADYNRVYQLLMVVVRVLQQSSKKLDSIPSLDVFLEQGLEFFELKDNAVYFEVVANIVAQGSVTSISPVLFRSIIDYYAKEENLKVIEDLIIMLNPTTLDVDLAVKLCQKYNLFDLLIYIWNKIFDDYQTPVVDLIYRISNQSEKCVIFNGPQVPPETTIFDYVTYILTGRQYPQNLSISPSDKCSKIQRELSAFIFSGFSIKWPSNSNHKLYICENPEEEPAFPYFHLLLKSNPSRFLAMLNEVFEASLFNDDNDMVASVGEAELVSRQYVIDLLLDAMKDTGNSDNIRVLVAIFIATSISKYPQFIKVSNQALDCVVNTICSSRVQGIYEISQIALESLLPYYHSRTTENFILELKEKNFNKVLFHIYKSENKYASALSLILETKDIEKEYNTDIVSITDYILKKCPPGSLECGKVTEVIETNFDLLLSRIGIEKCVTIFSDFDYNLHQEILEVKNEETQQKYLDKLFSTPNINNKVDKRLRNLHIELNCKYKSKREMILWLNGTVLSNAESLQILDLLNQDSNFEAAAIIHERLESFNLAVRDLLSFIEQCLNEGKTNISTLLESLRRAFDDCNSAGTEKKSCWILLITFLITLYGKYPSHDERKDLCNKLLQEAFLGLVRSKSSSQKDSGGEFWEIMSSVLEHQDVILMKVQDLKQLLLNVFNTYKLERSLSELIQKIIEDSSQDLVQQYRKFLSEGWSIHTDDCEICGKKIWGAGLDPLLFLAWENVQRHQDMISVDLKTPLVIFKCHHGFHQTCLENLAQKPDEYSCLICQTESNPKIV
In the case of B1, the binding result in test [2] is reported as “binds”.
